Results are given in words; binding and its absence hold for the method and conditions named. Some results given as binding are weak or reduced against the parent protein; the word gives no strength. Where a sequence is shown, tags or fusion partners need not be part of it.
Target: KaiA1 (Slr0756), GAL4 fusions for yeast two-hybrid (Synechocystis sp. PCC 6803) (UniProt P74644)
Test: two-hybrid

- binding: binds
B1: KaiA1 (Slr0756), GAL4 fusions for yeast two-hybrid (protein, UniProt P74644 1-299)
chain: MQSPLSLCLFAPEHVAHRLRSIFQGDRHYLSTFQALDDFCAFLEDKPERIDCLLVYYEANSLPVLNRLYEQGRLLPIILLEPSPSALAKTTDEHPTIVYHNAEIHLPESQWSELPTVVDRAIAHYLHLGPICTLPNQTETIPAPIVDESSQSFLLLQQRRLADKLKERLGYLGVYYKRKPSHFYRNFSPQEKQEYLEDLSSQYREIILSYFSDEGTVNDLLDQFVNQAFFADLAISQILEIHMELMDEFSQHLKLEGRSEEVLLDYRLVLIDILAHLGEMYRRSIPREDIPFDVYYQTD

Source: article doi:10.1101/2021.07.20.453058 (bioRxiv, 2021)
